Measured values: paper doi:10.1101/2021.01.13.426575
Results are given in words; binding and its absence hold for the method and conditions named. Binding seen in cells or lysates may run through a third protein. A result given as binding can be weak or reduced; the word gives no strength.

Protein sequences, listed by entry. Tags and fused reporters are not part of them. Lines headed by an entry give the natural chain unless they say otherwise; changes in a name come on top.
UniProt Q9Y2G2: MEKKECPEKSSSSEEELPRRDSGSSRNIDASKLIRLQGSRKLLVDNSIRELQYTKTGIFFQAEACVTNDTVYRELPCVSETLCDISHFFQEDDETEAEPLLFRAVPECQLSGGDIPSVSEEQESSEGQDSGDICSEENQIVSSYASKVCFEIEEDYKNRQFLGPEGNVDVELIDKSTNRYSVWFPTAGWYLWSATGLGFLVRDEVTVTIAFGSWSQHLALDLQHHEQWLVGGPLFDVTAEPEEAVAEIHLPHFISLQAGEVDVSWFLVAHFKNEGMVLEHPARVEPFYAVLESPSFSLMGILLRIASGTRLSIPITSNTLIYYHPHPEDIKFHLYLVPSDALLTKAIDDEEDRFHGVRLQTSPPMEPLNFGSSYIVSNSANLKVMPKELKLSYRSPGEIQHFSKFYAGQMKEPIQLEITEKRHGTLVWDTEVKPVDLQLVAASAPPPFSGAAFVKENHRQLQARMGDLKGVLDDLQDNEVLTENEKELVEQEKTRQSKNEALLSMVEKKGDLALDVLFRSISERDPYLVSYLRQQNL
UniProt Q86TI2: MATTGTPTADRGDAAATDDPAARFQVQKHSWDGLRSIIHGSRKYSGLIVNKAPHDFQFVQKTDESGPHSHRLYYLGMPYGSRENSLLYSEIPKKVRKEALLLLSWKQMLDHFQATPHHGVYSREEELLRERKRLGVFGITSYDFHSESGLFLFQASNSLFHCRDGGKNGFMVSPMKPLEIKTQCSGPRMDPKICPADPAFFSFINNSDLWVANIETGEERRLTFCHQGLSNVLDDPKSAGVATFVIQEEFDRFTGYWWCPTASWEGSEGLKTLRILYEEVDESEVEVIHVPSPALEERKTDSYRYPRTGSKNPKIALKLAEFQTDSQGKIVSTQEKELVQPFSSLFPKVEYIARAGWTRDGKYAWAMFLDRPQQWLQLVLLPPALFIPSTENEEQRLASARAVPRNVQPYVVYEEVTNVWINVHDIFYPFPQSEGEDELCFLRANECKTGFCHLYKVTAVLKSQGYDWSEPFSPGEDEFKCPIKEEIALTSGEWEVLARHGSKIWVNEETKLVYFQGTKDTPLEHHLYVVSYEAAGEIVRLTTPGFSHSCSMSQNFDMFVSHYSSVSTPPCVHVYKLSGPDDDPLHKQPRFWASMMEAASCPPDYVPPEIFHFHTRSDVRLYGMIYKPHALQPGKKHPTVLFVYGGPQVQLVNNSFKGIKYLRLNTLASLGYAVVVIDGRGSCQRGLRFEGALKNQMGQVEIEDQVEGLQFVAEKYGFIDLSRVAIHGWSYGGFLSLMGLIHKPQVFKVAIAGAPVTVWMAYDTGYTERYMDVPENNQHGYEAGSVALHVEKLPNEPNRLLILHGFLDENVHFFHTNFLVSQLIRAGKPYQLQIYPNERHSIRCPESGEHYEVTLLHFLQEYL

Key:
Test in all cases: co-IP
[1] = molecular target: HA-tagged full-length CARD8 F405G (interface IIIa mutant) (human) (UniProt Q9Y2G2)
[2] = molecular target: HA-tagged full-length CARD8 R394E (interface IIIa mutant) (human) (UniProt Q9Y2G2)
[3] = molecular target: HA-tagged full-length CARD8 F370G (interface IIIb mutant) (human) (UniProt Q9Y2G2)
[4] = molecular target: HA-tagged full-length CARD8 L368G (interface IIIb mutant) (human) (UniProt Q9Y2G2)

binding [1]: binds
binding [2]: binds
binding [3]: binds
binding [4]: binds
Substance: DPP9, endogenous in THP-1 cells (from UniProt Q86TI2 1-863) (enzyme)
